Assay [1] concerns 639-V bladder cancer cell line (WT/R248C?). As to the kind of experiment: cells. As to conditions: Homo sapiens, 96 h, read-out: Cell viability IC50.
Assay [2] has as its system UM-UC-14 bladder cancer cell line (FGFR3 S249C). As to the kind of experiment: cells. As to conditions: UMUC14, 96 h, read-out: Cell viability IC50.
Assay [3] concerns RT4 bladder cancer cell line (FGFR3-TACC3). As to the kind of experiment: tissue or blood. The conditions noted are these: 96 h, read-out: Cell viability IC50.
The test system of assay [4] is UM-UC-1 bladder cancer cell line (WT). As to the kind of experiment: tissue or blood. As to conditions: 96 h, read-out: Cell viability IC50.
The subject of assay [5] is EJ28 bladder cancer cell line (FGFR status unknown). As to the kind of experiment: cells. As to conditions: Homo sapiens, EJ-28, 96 h, read-out: Cell viability IC50.
Assay [6] has as its system CLS439 bladder cancer cell line (FGFR status unknown). As to the kind of experiment: tissue or blood. The conditions noted are these: 96 h, read-out: Cell viability IC50.
The test system of assay [7] is 5637 bladder cancer cell line (WT). As to the kind of experiment: tissue or blood. The conditions noted are these: 96 h, read-out: Cell viability IC50.
Assay [8] has as its system T24 bladder cancer cell line (WT). As to the kind of experiment: tissue or blood. As to conditions: 96 h, read-out: Cell viability IC50.
Assay [9] deals with MGH-U3 bladder cancer cell line (FGFR3 Y373C). As to the kind of experiment: tissue or blood. The conditions noted are these: 96 h, read-out: Cell viability IC50.

Broadly, the IC50 is the concentration needed to halve the response being measured. For `COc1cc(OC)cc(N(CCNC(C)C)c2ccc3ncc(-c4cnn(C)c4)nc3c2)c1` [erdafitinib, N-(3,5-dimethoxyphenyl)-N′-(1-methylethyl)-N-[3-(1-methyl-1H-pyrazol-4-yl)quinoxalin-6-yl]ethane-1,2-diamine], the IC50 was greater than 1000 nM in [1]; 3.1 nM in [2]; 1.1 nM in assay [3]; 0.96 nM in [4]; 2640 nM in [5]; 6540 nM in assay [6]. For the same molecule, the IC50 is 3840 nM in [7], 3330 nM in assay [8] and 2.3 nM in [9].

The values are drawn from US20230110113A1, “FGFR TYROSINE KINASE INHIBITORS FOR THE TREATMENT OF HIGH-RISK NON-MUSCLE INVASIVE BLADDER CANCER” (Janssen Pharmaceutica NV, priority 2020, published 2023).
